Measured values published in US20240294637A1 (DENDROCYTE BIOTECH, published 2024).
Results are given in words; binding and its absence hold for the method and conditions named. Some results given as binding are weak or reduced against the parent protein; the word gives no strength. For part of these data: Sequences can lack the tags named with a protein.

Columns and labels:
[1] = target: T1, CD300f-Ig fusion protein (recombinant CD300f-Fc protein, Sino Biologicals) (human) (UniProt Q8TDQ1); experiment: ELISA on captured CD300f-Ig fusion protein
T1 sequence (looked up): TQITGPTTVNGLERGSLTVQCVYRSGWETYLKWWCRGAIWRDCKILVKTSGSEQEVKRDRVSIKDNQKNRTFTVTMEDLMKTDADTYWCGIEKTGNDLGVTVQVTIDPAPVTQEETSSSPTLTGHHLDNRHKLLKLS

[2] = target: T2, CD300f as naturally expressed on human myeloid cells (HEL, HL-60, THP-1, U937 cell lines; monocytes; AML blasts and LSCs; cord blood HSC) (human) (UniProt Q8TDQ1); experiment: flow cytometry geoMFI ratio on myeloid cell lines
T2 sequence (looked up): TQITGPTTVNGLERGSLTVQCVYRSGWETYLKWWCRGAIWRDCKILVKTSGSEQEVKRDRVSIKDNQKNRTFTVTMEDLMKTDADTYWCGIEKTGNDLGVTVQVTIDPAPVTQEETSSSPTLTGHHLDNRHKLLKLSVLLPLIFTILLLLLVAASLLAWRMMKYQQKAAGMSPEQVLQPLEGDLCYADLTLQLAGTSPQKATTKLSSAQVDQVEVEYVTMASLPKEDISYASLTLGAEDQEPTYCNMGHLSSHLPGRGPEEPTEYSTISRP

[3] = target: T3, CD300f Isoform 1 (Accession number NP_620587) on CHO transfectant cell surface (human) (UniProt Q8TDQ1); experiment: flow cytometry on CD300f isoform 1 CHO transfectants
T3 sequence (looked up): T2 sequence (looked up)

[4] = target: T2, CD300f as naturally expressed on human myeloid cells (HEL, HL-60, THP-1, U937 cell lines; monocytes; AML blasts and LSCs; cord blood HSC) (human); experiment: flow cytometry on cord blood hematopoietic stem cells
[5] = target: T2, CD300f as naturally expressed on human myeloid cells (HEL, HL-60, THP-1, U937 cell lines; monocytes; AML blasts and LSCs; cord blood HSC) (human); experiment: flow cytometry on monocyte populations of healthy PBMC
[6] = target: T2, CD300f as naturally expressed on human myeloid cells (HEL, HL-60, THP-1, U937 cell lines; monocytes; AML blasts and LSCs; cord blood HSC) (human); experiment: flow cytometry on HEL, HL-60, THP-1 and U937 cell lines
[7] = target: T2, CD300f as naturally expressed on human myeloid cells (HEL, HL-60, THP-1, U937 cell lines; monocytes; AML blasts and LSCs; cord blood HSC) (human); experiment: flow cytometry on CD300f^+ monocyte populations of healthy PBMC
[8] = target: T2, CD300f as naturally expressed on human myeloid cells (HEL, HL-60, THP-1, U937 cell lines; monocytes; AML blasts and LSCs; cord blood HSC) (human); experiment: flow cytometry on five AML samples, blasts and CD34^+CD38^- LSCs
[9] = target: T1, CD300f-Ig fusion protein (recombinant CD300f-Fc protein, Sino Biologicals) (human); experiment: discussion of the results; affinity was measured by Bio-Layer Interferometry on CD300f-Fc (FIG. 9)

Measured: binding

B1: Monoclonal antibody DCR-2 (antibody, V domains shown)
VH: MESGGGLVQPGGPLKLSCAASGFGFSGSWMSWVRQAPGKGLEWIGQINPDSSTINYTPSLKDKFIISRDNAKNTLYLQINKVRSEDTALYYCARRGFFEGYSAWFAYWGQGTLVTV
VL: ILMTQTPKFLLVSAGDRVTITCKASQSVSNDVAWYQQKPGQSPSLLIYYASNRNTGVPDRFTGSGYETDFTFTISTVQAEDLAVYFCQQDYTSPWTFGGGTKLEIKR
notes: also called mAb DCR-2
binds: [1] | [2] | [3] | [4] | [5] | [6] | [7] | [8] | [9]
